Source: the supplement of paper PMC4604168 (melanoma cell lines)
The other results are listed elsewhere or left out. Many values rest on one well or one pass, so single values are uncertain.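 Cells were imaged in 1,536-well plates, and nuclei stained with an antibody against cleaved PARP were counted against all DNA-stained nuclei to give the apoptosis fraction. Screening doses were chosen to leave most cells alive, and resting and induced cleaved-PARP levels differ strongly between cell lines.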

Tests used:
Assay in all cases: cleaved PARP positive nuclei fraction relative to DMSO control; melanoma cells; higher = more apoptosis
Conditions in all cases: library dose: low library concentration; 72 h
A101D = system: A101D
A2058 = system: A2058
C32 = system: C32
CBRC008 = system: CBRC008 (line from a melanoma biopsy)
CBRC014 = system: CBRC014 (line from a melanoma biopsy)
CBRC016 = system: CBRC016 (line from a melanoma biopsy)
CBRC017 = system: CBRC017 (line from a melanoma biopsy)
A375 = system: A375
CBRC013 = system: CBRC013 (line from a melanoma biopsy)

SMILES | cleaved PARP positive nuclei fraction (A101D) | cleaved PARP positive nuclei fraction (A2058) | cleaved PARP positive nuclei fraction (C32) | cleaved PARP positive nuclei fraction (CBRC008) | cleaved PARP positive nuclei fraction (CBRC014) | cleaved PARP positive nuclei fraction (CBRC016) | cleaved PARP positive nuclei fraction (CBRC017) | cleaved PARP positive nuclei fraction (A375) | cleaved PARP positive nuclei fraction (CBRC013)
Cc1cc(Nc2cc(N3CCN(C)CC3)nc(Sc3ccc(NC(=O)C4CC4)cc3)n2)n[nH]1 [Tozasertib] + Cc1cc(SCc2sc(-c3ccc(C(F)(F)F)c(F)c3)nc2C)ccc1OCC(=O)O [GW0742] (first compound 0.006 µM, partner dose 2 µM) | 25.2% | 107% | 88.3% | 44.6% | 86.8% | 62.6% | 91.7% |  | 
CN1CCN(c2ccc3nc(-c4c(N)c5c(F)cccc5[nH]c4=O)[nH]c3c2)CC1 [Dovitinib] + Cc1cc(SCc2sc(-c3ccc(C(F)(F)F)c(F)c3)nc2C)ccc1OCC(=O)O [GW0742] (first compound 0.1 µM, partner dose 2 µM) | 32.1% | 77.7% | 85.3% | 38.4% | 114% | 83.1% | 81.7% |  | 
Cc1nc(Nc2ncc(C(=O)Nc3c(C)cccc3Cl)s2)cc(N2CCN(CCO)CC2)n1 [dasatanib] + O=C(Oc1ccc([N+](=O)[O-])cc1)N1CCC(C(O)(c2ccc3c(c2)OCO3)c2ccc3c(c2)OCO3)CC1 [JZL184] (first compound 0.004 µM, partner dose 1 µM) | 66% | 39.6% | 186% |  | 133% | 110% | 90.6% | 42.6% | 32.2%
